Test results from US20110165652A1, “COMPOSITIONS, METHODS AND SYSTEMS FOR SINGLE MOLECULE SEQUENCING” (LIFE TECHNOLOGIES CORPORATION, priority 2008, published 2011).
Some of these results come from one statement about several compounds together.

Tested on: template specifying incorporation of a single γ-labeled nucleotide
Assay: Real time on-surface single molecule detection of γ-labeled nucleotide incorporation
Format: biochemical
Procedure: Real time “On surface” experiments were performed to characterize the activity of the Phi29 variants on an exemplary single molecule sequencing system (FIGS. 72A and B). Chambered slides were prepared to facilitate injection and multiple experiments data collection from several chambers using a single slide. The template specified incorporation of a single γ-labeled nucleotide. The samples were excited using a 488 nm Argon ion laser at 2.5 mW and the data were collected at 25 ms integration time. Each stream of data was collected for 1500 frames, consecutive streams were collected for ˜5 minutes by moving to new fields of views (FOVs). FRETAN software was used to obtain the donor and acceptor traces.
After trace analysis, the selected signals (with acceptor signal over background greater than 4, i.e., ASN≧4) were characterized by examining attributes including duration, ASN and timing of signal appearance (i.e., start of signals). The variants that are of special interest include Variants 2 and 3.

**Q.** With “V250A/E375Y: Phi29 exo(−) (D12A/D66A) polymerase mutant” as the substance, how does the “time after injection in which most of the signals are detected” value read?
**A.** The value was no more than 90 s.
